# In the supplement of paper PMC8728848:
# The other results are listed elsewhere or left out.
# Legend:
# Assay in all cases: glycan array binding signal (z-score within array); higher = stronger binding
# Conditions in all cases: glycan notation: IUPAC condensed, linker removed
# [1] = biological target: Fuc(a1-2)Gal6S(b1-3)GlcNAc6S
# How it was run: (§1)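 The binding signal is a Z-score computed within each array and averaged over linkers. Arrays of the same protein sequence at different concentrations or buffers were also averaged together. Data originate from 3228 arrays in the Consortium for Functional Glycomics database, kept only where the protein sequence was available.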
# Fuc(a1-2)Gal6S(b1-4)Glc = biological target: Fuc(a1-2)Gal6S(b1-4)Glc
# How it was run: as §1
# [2] = biological target: Fuc(a1-2)Gal6S(b1-4)Glc6S
# How it was run: as §1
# Fuc(a1-2)[Gal(a1-3)]Gal = biological target: Fuc(a1-2)[Gal(a1-3)]Gal
# How it was run: as §1
# [3] = biological target: Fuc(a1-2)[Gal(a1-3)]Gal(b1-3)GalNAc
# How it was run: as §1
# [4] = biological target: Fuc(a1-2)[Gal(a1-3)]Gal(b1-3)GalNAc(b1-3)Gal(a1-4)Gal(b1-4)Glc
# How it was run: as §1
# [5] = biological target: Fuc(a1-2)[Gal(a1-3)]Gal(b1-3)GlcNAc
# How it was run: as §1
# [6] = biological target: Fuc(a1-2)[Gal(a1-3)]Gal(b1-3)GlcNAc(b1-2)Man(a1-3)[Fuc(a1-2)[Gal(a1-3)]Gal(b1-3)GlcNAc(b1-2)Man(a1-6)]Man(b1-4)GlcNAc(b1-4)GlcNAc
# How it was run: as §1
# [7] = biological target: Fuc(a1-2)[Gal(a1-3)]Gal(b1-3)GlcNAc(b1-2)Man(a1-3)[Fuc(a1-2)[Gal(a1-3)]Gal(b1-3)GlcNAc(b1-2)Man(a1-6)]Man(b1-4)GlcNAc(b1-4)[Fuc(a1-6)]GlcNAc
# How it was run: as §1
# [8] = biological target: Fuc(a1-2)[Gal(a1-3)]Gal(b1-3)GlcNAc(b1-3)GalNAc
# How it was run: as §1
# [9] = biological target: Fuc(a1-2)[Gal(a1-3)]Gal(b1-3)GlcNAc(b1-6)GalNAc
# How it was run: as §1
# [10] = biological target: Fuc(a1-2)[Gal(a1-3)]Gal(b1-4)Glc
# How it was run: as §1
# [11] = biological target: Fuc(a1-2)[Gal(a1-3)]Gal(b1-4)GlcNAc
# How it was run: as §1
# [12] = biological target: Fuc(a1-2)[Gal(a1-3)]Gal(b1-4)GlcNAc(b1-2)Man
# How it was run: as §1
# [13] = biological target: Fuc(a1-2)[Gal(a1-3)]Gal(b1-4)GlcNAc(b1-2)Man(a1-3)[Fuc(a1-2)[Gal(a1-3)]Gal(b1-4)GlcNAc(b1-2)Man(a1-6)]Man(b1-4)GlcNAc(b1-4)GlcNAc
# How it was run: as §1
# [14] = biological target: Fuc(a1-2)[Gal(a1-3)]Gal(b1-4)GlcNAc(b1-2)Man(a1-3)[Fuc(a1-2)[Gal(a1-3)]Gal(b1-4)GlcNAc(b1-2)Man(a1-6)]Man(b1-4)GlcNAc(b1-4)[Fuc(a1-6)]GlcNAc
# How it was run: as §1
# [15] = biological target: Fuc(a1-2)[Gal(a1-3)]Gal(b1-4)GlcNAc(b1-3)GalNAc
# How it was run: as §1
# [16] = biological target: Fuc(a1-2)[Gal(a1-3)]Gal(b1-4)GlcNAc(b1-3)[Fuc(a1-2)[Gal(a1-3)]Gal(b1-4)GlcNAc(b1-6)]GalNAc
# How it was run: as §1
# [17] = biological target: Fuc(a1-2)[Gal(a1-3)]Gal(b1-4)GlcNAc(b1-6)GalNAc
# How it was run: as §1
# [18] = biological target: Fuc(a1-2)[Gal(a1-3)]Gal(b1-4)[Fuc(a1-3)]Glc
# How it was run: as §1
# [19] = biological target: Fuc(a1-2)[Gal(a1-3)]Gal(b1-4)[Fuc(a1-3)]GlcNAc
# How it was run: as §1
# [20] = biological target: Fuc(a1-2)[Gal(a1-3)]Gal(b1-4)[Fuc(a1-3)]GlcNAc(b1-3)GalNAc
# How it was run: as §1
# [21] = biological target: Fuc(a1-2)[Gal(a1-4)]Gal(b1-4)GlcNAc
# How it was run: as §1
# [22] = biological target: Fuc(a1-2)[GalNAc(a1-3)]Gal
# How it was run: as §1
# [23] = biological target: Fuc(a1-2)[GalNAc(a1-3)]Gal(b1-3)GalNAc(a1-3)[Fuc(a1-2)]Gal(b1-4)GlcNAc
# How it was run: as §1
# [24] = biological target: Fuc(a1-2)[GalNAc(a1-3)]Gal(b1-3)GalNAc(b1-3)Gal(a1-4)Gal(b1-4)Glc
# How it was run: as §1
# [25] = biological target: Fuc(a1-2)[GalNAc(a1-3)]Gal(b1-3)GlcNAc
# How it was run: as §1
# [26] = biological target: Fuc(a1-2)[GalNAc(a1-3)]Gal(b1-3)GlcNAc(b1-2)Man(a1-3)[Fuc(a1-2)[GalNAc(a1-3)]Gal(b1-3)GlcNAc(b1-2)Man(a1-6)]Man(b1-4)GlcNAc(b1-4)GlcNAc
# How it was run: as §1
# [27] = biological target: Fuc(a1-2)[GalNAc(a1-3)]Gal(b1-3)GlcNAc(b1-2)Man(a1-3)[Fuc(a1-2)[GalNAc(a1-3)]Gal(b1-3)GlcNAc(b1-2)Man(a1-6)]Man(b1-4)GlcNAc(b1-4)[Fuc(a1-6)]GlcNAc
# How it was run: as §1
# [28] = biological target: Fuc(a1-2)[GalNAc(a1-3)]Gal(b1-3)GlcNAc(b1-3)GalNAc
# How it was run: as §1
# [29] = biological target: Fuc(a1-2)[GalNAc(a1-3)]Gal(b1-3)GlcNAc(b1-6)GalNAc
# How it was run: as §1
# [30] = biological target: Fuc(a1-2)[GalNAc(a1-3)]Gal(b1-4)Glc
# How it was run: as §1
# [31] = biological target: Fuc(a1-2)[GalNAc(a1-3)]Gal(b1-4)GlcNAc
# How it was run: as §1
# [32] = biological target: Fuc(a1-2)[GalNAc(a1-3)]Gal(b1-4)GlcNAc(b1-2)Man
# How it was run: as §1
# [33] = biological target: Fuc(a1-2)[GalNAc(a1-3)]Gal(b1-4)GlcNAc(b1-2)Man(a1-3)[Fuc(a1-2)[GalNAc(a1-3)]Gal(b1-4)GlcNAc(b1-2)Man(a1-6)]Man(b1-4)GlcNAc(b1-4)GlcNAc
# How it was run: as §1
# [34] = biological target: Fuc(a1-2)[GalNAc(a1-3)]Gal(b1-4)GlcNAc(b1-2)Man(a1-3)[Fuc(a1-2)[GalNAc(a1-3)]Gal(b1-4)GlcNAc(b1-2)Man(a1-6)]Man(b1-4)GlcNAc(b1-4)[Fuc(a1-6)]GlcNAc
# How it was run: as §1
# [35] = biological target: Fuc(a1-2)[GalNAc(a1-3)]Gal(b1-4)GlcNAc(b1-3)Gal(b1-4)GlcNAc
# How it was run: as §1
# [36] = biological target: Fuc(a1-2)[GalNAc(a1-3)]Gal(b1-4)GlcNAc(b1-3)Gal(b1-4)GlcNAc(b1-3)Gal(b1-4)GlcNAc
# How it was run: as §1
# [37] = biological target: Fuc(a1-2)[GalNAc(a1-3)]Gal(b1-4)GlcNAc(b1-3)GalNAc
# How it was run: as §1
# [38] = biological target: Fuc(a1-2)[GalNAc(a1-3)]Gal(b1-4)GlcNAc(b1-3)[Fuc(a1-2)[GalNAc(a1-3)]Gal(b1-4)GlcNAc(b1-6)]GalNAc
# How it was run: as §1
# [39] = biological target: Fuc(a1-2)[GalNAc(a1-3)]Gal(b1-4)GlcNAc(b1-6)GalNAc
# How it was run: as §1
# [40] = biological target: Fuc(a1-2)[GalNAc(a1-3)]Gal(b1-4)[Fuc(a1-3)]GlcNAc
# How it was run: as §1
# [41] = biological target: Fuc(a1-2)[GalNAc(a1-3)]Gal(b1-4)[Fuc(a1-3)]GlcNAc(b1-3)GalNAc
# How it was run: as §1
# [42] = biological target: Fuc(a1-2)[GalNAc(a1-4)]Gal(b1-4)GlcNAc
# How it was run: as §1
# [43] = biological target: Fuc(a1-2)[GalNAc(b1-3)]Gal
# How it was run: as §1
binder,measurement,setting,value
Clec39 (Caenorhabditis elegans) (protein) MTSFYDNSSSSSKPVPLKTSRAQKIQILIFDNWKLILYGAISTLILVLAIMFSTLFFALPAANCDENSEPTKYYTTNAEITTTITTTNQKTTSTASSHLTTISSSATQIYSESSSSSTSQSTFTQSPPEISTTTIAPSDFSCQHGFTLVNNKCWKLVTSNQARPDADKICNGYGGATLFSIKSEQDNRAMIHFVKGQDIDFLWSGLLCSAGEPISCIWDIENGSTANYSNFADGFPNIVYGNCVYFITSGDEAGQWGNEQCGQVMNFVCELPATFQGKDGCKNNYEKSCYLRFDLNLTVPQAQNFCLEKCANLVSIHSANEVRFIMTIYDFIGEILIGALAPAQDFIYWLDGTPANYNNLKFFYNSTCVHMTVAPGMQNVGKWFTRFCTETGKFLCKRSIKNSCT,glycan array binding signal (z-score),[1],0.002
same,glycan array binding signal (z-score),Fuc(a1-2)Gal6S(b1-4)Glc,-0.179
same,glycan array binding signal (z-score),[2],-0.853
same,glycan array binding signal (z-score),Fuc(a1-2)[Gal(a1-3)]Gal,0.045
same,glycan array binding signal (z-score),[3],0.59
same,glycan array binding signal (z-score),[4],-0.883
same,glycan array binding signal (z-score),[5],-0.274
same,glycan array binding signal (z-score),[6],0.435
same,glycan array binding signal (z-score),[7],-0.229
same,glycan array binding signal (z-score),[8],-0.194
same,glycan array binding signal (z-score),[9],-0.416
same,glycan array binding signal (z-score),[10],-0.432
same,glycan array binding signal (z-score),[11],0.159
same,glycan array binding signal (z-score),[12],-0.697
same,glycan array binding signal (z-score),[13],3.03
same,glycan array binding signal (z-score),[14],0.141
same,glycan array binding signal (z-score),[15],0.145
same,glycan array binding signal (z-score),[16],1.4
same,glycan array binding signal (z-score),[17],0.316
same,glycan array binding signal (z-score),[18],-1.08
same,glycan array binding signal (z-score),[19],0.454
same,glycan array binding signal (z-score),[20],1.72
same,glycan array binding signal (z-score),[21],-0.356
same,glycan array binding signal (z-score),[22],-0.52
same,glycan array binding signal (z-score),[23],0.087
same,glycan array binding signal (z-score),[24],-0.716
same,glycan array binding signal (z-score),[25],0.877
same,glycan array binding signal (z-score),[26],0.264
same,glycan array binding signal (z-score),[27],0.039
same,glycan array binding signal (z-score),[28],0.887
same,glycan array binding signal (z-score),[29],-1.5
same,glycan array binding signal (z-score),[30],2.18
same,glycan array binding signal (z-score),[31],-0.203
same,glycan array binding signal (z-score),[32],-1.14
same,glycan array binding signal (z-score),[33],1.1
same,glycan array binding signal (z-score),[34],0.878
same,glycan array binding signal (z-score),[35],-0.024
same,glycan array binding signal (z-score),[36],-0.054
same,glycan array binding signal (z-score),[37],-0.527
same,glycan array binding signal (z-score),[38],-0.534
same,glycan array binding signal (z-score),[39],-0.922
same,glycan array binding signal (z-score),[40],-0.447
same,glycan array binding signal (z-score),[41],0.3
same,glycan array binding signal (z-score),[42],1.18
same,glycan array binding signal (z-score),[43],0.824

# Given with bars between the fields: part of the list above.
binder | measurement | setting | value
Clec39 (Caenorhabditis elegans) (protein) MTSFYDNSSSSSKPVPLKTSRAQKIQILIFDNWKLILYGAISTLILVLAIMFSTLFFALPAANCDENSEPTKYYTTNAEITTTITTTNQKTTSTASSHLTTISSSATQIYSESSSSSTSQSTFTQSPPEISTTTIAPSDFSCQHGFTLVNNKCWKLVTSNQARPDADKICNGYGGATLFSIKSEQDNRAMIHFVKGQDIDFLWSGLLCSAGEPISCIWDIENGSTANYSNFADGFPNIVYGNCVYFITSGDEAGQWGNEQCGQVMNFVCELPATFQGKDGCKNNYEKSCYLRFDLNLTVPQAQNFCLEKCANLVSIHSANEVRFIMTIYDFIGEILIGALAPAQDFIYWLDGTPANYNNLKFFYNSTCVHMTVAPGMQNVGKWFTRFCTETGKFLCKRSIKNSCT | glycan array binding signal (z-score) | [4] | -0.883
same | glycan array binding signal (z-score) | [28] | 0.887
same | glycan array binding signal (z-score) | [37] | -0.527
